Data published in article PMC12143549.

Molecular target: HA-tagged PDCoV membrane (M) protein (pCAGGS-HA-M) (porcine deltacoronavirus (PDCoV))
Assay: co-IP; HEK-293T co-transfected with an HA-tagged and a Flag-tagged construct, 24 h; lysate precipitated with anti-HA antibody overnight at 4°C, protein A + G agarose; western blot; for SIRT5 and M also after FK866 (20 nM), NMN (100 µM) or both (FK866 reduced, NMN enhanced the interaction)

B1: Flag-tagged PEX12 (protein, UniProt F1S181 1-359)
chain: MAEHGAHITTASVVDDQPSIFEVVAQESLMTAVRPALQHVVKVLAESNPAHYGFFWRWFDEIFTVLDLLLQQHYLSKTSASFSENFYGLKRIVMGDTQKLQRLASAGLPKRQLWKSIMFLVLLPYLKVKLEKLVSSLREEDEYSIHPPSSRWKQFYRAFLAAYPFVNMAWEGWFLVQQLQYILGKAQHHSPLLSLAGVRLGRLTVHDIQALEHKPAEASMMQQPAGSIGEKIKSALKKAVGGVALSLSTGLSVGVFFLQFLEWWYSSENQETIKSLTALPTPPPPVHLDYNSDSPLLPKMKTVCPLCRKNRVNDTVLATSGYVFCYRCVFNYVRSHQACPITGYPTEVQHLIKLYSPEN
  binding: binds

These are yes or no findings as the source states them, for the method shown. Binding seen in cells or lysates may run through a third protein. A result given as binding can be weak or reduced; the word gives no strength. Tags and fused reporters may be left off the sequences shown.
